The list shows a part of the results, in another mix than the full data. At the low end of the ranking the order means little.

The chains behind the UniProt entries cited, without tags or fusion partners. Where a name states a change or a piece, a line headed by the entry shows the natural chain unless it says otherwise.
UniProt O43186: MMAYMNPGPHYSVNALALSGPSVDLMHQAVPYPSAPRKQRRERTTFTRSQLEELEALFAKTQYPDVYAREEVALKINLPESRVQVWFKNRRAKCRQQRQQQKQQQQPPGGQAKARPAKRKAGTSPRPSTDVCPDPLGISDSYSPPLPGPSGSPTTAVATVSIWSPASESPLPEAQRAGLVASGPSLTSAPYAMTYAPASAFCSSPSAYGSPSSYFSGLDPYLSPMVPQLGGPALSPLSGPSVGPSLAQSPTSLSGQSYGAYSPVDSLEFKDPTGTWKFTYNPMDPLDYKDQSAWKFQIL

For one experiment, the target named is T1, FEV (UniProt Q99581).
T1 sequence: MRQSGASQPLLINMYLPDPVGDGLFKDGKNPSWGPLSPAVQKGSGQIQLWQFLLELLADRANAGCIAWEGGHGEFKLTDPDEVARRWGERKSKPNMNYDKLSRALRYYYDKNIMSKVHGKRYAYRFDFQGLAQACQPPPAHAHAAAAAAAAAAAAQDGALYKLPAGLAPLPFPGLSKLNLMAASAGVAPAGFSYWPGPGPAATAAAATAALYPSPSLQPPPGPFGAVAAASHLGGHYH
Description: DAPPL (digital affinity profiling via proximity ligation, sequencing). The settings on record: 10 mM Tris-HCl pH 7.5, 50 mM NaCl, 1 mM DTT, 4% glycerol, room temperature, 30 min; GST-TFs on glutathione beads, 16-mer random dsDNA library, 0.1% …; high values mean tight binding; double strand, one strand shown; scale: fold enrichment (6-mer frequency, TF over GST control).
In turn, TAGGTT showed a binding signal of 0.948. CTTGTG returned a binding signal of 1.39. As to AACAGG, the binding signal amounted to 1.16. On the same count and under the same terms, in the case of TCTGTC it was 1.13.

GCTACC displayed a binding signal of 1.18. Same read-out and setting: in the case of CTTTTT it was 1.35.

For a further experiment, the target named is CRX (UniProt O43186). Described as above. The note with it: 10 mM Tris-HCl pH 7.5, 50 mM NaCl, 1 mM DTT, 4% glycerol, room temperature, 30 min; GST-TFs on glutathione beads, 16-mer random dsDNA library, 0.1% …; high values mean tight binding; double strand, one strand shown; scale: fold enrichment (6-mer frequency, TF over GST control).
Sequence TAGGTT registered a binding signal of 1.25.

In turn, CTTGTG gave a binding signal of 1.25. In turn, AACAGG yielded a binding signal of 0.84.

For TCTGTC, the binding signal came to 0.995. Regarding GCTACC, the binding signal turned out to be 0.825. CTTTTT gave a binding signal of 1.25.

Another experiment addresses T2, ELF5 (UniProt Q9UKW6-2).
T2 sequence: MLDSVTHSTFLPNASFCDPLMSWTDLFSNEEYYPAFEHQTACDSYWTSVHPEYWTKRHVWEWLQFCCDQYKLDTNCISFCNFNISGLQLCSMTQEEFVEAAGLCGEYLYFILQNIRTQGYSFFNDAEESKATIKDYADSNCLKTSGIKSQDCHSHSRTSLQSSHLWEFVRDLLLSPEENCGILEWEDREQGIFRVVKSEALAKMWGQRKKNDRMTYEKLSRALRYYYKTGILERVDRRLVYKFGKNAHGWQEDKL
The description is as above. The note with it: 10 mM Tris-HCl pH 7.5, 50 mM NaCl, 1 mM DTT, 4% glycerol, room temperature, 30 min; GST-TFs on glutathione beads, 16-mer random dsDNA library, 0.1% …; high values mean tight binding; double strand, one strand shown; scale: fold enrichment (6-mer frequency, TF over GST control).
The sequence CAAAAC returned a binding signal of 1.25. Sequence TTCCCT had a binding signal of 2.49. For GCCTCC, the binding signal amounted to 1.29. The same measure, in the same setting: in the case of TAATGA it was 1.12. The same measure, in the same setting: in the case of TACTGA it was 0.961; in that of TCCCAC, 1.47; in that of TACCTC, 1.29.

For the sequence TAGTCC, the binding signal amounted to 1.06. On to AAGCGA, for which the binding signal came to 1.07.

With TTGCGG, the binding signal turned out to be 1.24. Regarding CTCTCA, the binding signal came to 1.28. Regarding GAATTT, the binding signal stood at 1.3. For the sequence CAGCTT, the binding signal amounted to 1.11. The sequence AAACCC returned a binding signal of 1.31. For the sequence GCTTTG, the binding signal came to 1.13. Still for that read-out and setting: next, CCTGAT: 1.64; ATAGTA: 1.13. Regarding TAACAC, the binding signal amounted to 1.2.

Regarding ACTCTT, the binding signal turned out to be 1.34.

GATCTC displayed a binding signal of 1.21. Same read-out and setting: in the case of AACTGC it was 1.36; in that of TGCGCT, 1.15.

TTTGCG: the binding signal came to 1.16. In the case of CTTGGG, the binding signal was found to be 1.19. As to ATTGCC, the binding signal was 1.22. On to TTAACG, for which the binding signal is 1.14. As for CGATTG, the binding signal is 1.11. The same measure, in the same setting: next, CGAAAC: 1.12; CTTCTG: 1.39; TGGTAT: 1.37.

In turn, ATGTAT gave a binding signal of 1.31. The sequence TACCGA displayed a binding signal of 1.08. The same measure, in the same setting: in the case of CGAGCT it was 0.958.

These data come from article PMC7862700.
